According to US20090324579A1:

B1: Casp1 VHH displayed on phage (VHH)
VHH: DVQLQASGGGLVQPGGSLRLSCAASGSLSRITVMGWYRQAPGKQRELVAIITSSGGTNYADSVKGRFTISRDNAKNTVYLQMNSLKPEDTAVYYCLAARGYDRYWGRGTQVTVSS
B2: Casp2 VHH displayed on phage (VHH)
VHH: DVQLQASGGGLVQAGGSLRLSCAASTNIFRDKFMAWYRQAPGKQRELVASITTGGRTDYADSVKGRFTISRDNTKDTMYLQMNSLKPEDTAVYYCAGFLGRTYWGQGTQVTVSS

Key:
[1] = target: recombinant caspase-3 protein; assay: phage ELISA on immobilized caspase-3
[2] = target: recombinant caspase-3 protein; assay: phage ELISA, VHH-phage on immobilized caspase-3

| Binder | binding [1] | binding [2] |
| --- | --- | --- |
| B1 | binds | binds |
| B2 | binds | binds |

No constants are given. Whether binding was seen depends on the method and setting. Binding calls can cover weak binding; strength is not graded here.
